Assay results from article PMC6953203.
Results are given in words; binding and its absence hold for the method and conditions named. A result given as binding can be weak or reduced; the word gives no strength.

Target: RLL1 (Red Lettuce Leaves 1), bHLH transcription factor (lettuce (Lactuca sativa))
Experiment: two-hybrid; Matchmaker Gold Yeast Two-Hybrid system (Clontech), yeast strain AH109; bHLH ORF in pGBKT7, MYB genes in pGADT7; growth on SD/-Leu/-Trp/-His/-Ade with X-α-Gal, 3–5 days at 28 °C

binding: binds
Substance: RLL3 (Red Lettuce Leaves 3), R3-MYB transcription factor (from UniProt A0A5C0C9V1)
